Experimental data: PubChem BioAssay AID268 (DTP/NCI, 2004)
The list does not hold the whole screen: it is rich in T/C values a quarter to a half above the control, in often repeated tests (any T/C) and in doses without a T/C. Further doses and runs are listed elsewhere. T/C gives the treated animals as a percentage of the vehicle group. Schedules are NCI's codes, read here as Q, the interval in days (D) or hours (H), X, the number of doses. Some T/C values are followed by the survivors on the day toxicity was checked, most often the fifth; without a count, all were alive then. Some doses were run more than once; the values are given in rising order. Some doses have a count of surviving animals in place of a T/C: the source files T/C as zero there, which appears to mark a toxic dose or a test without result, not a measured value. Survivors were counted at the toxicity check, usually on the fifth day, unless a day is given; later deaths do not show.

Tested on: CD2F1 mice, P1798 lymphosarcoma sc, tumor weight T/C
Test: NCI In Vivo Anticancer Drug Screen. Data for tumor model P1798 Lymphosarcoma (subcutaneous) in CD2F1 (CDF1) mice
Settings: higher T/C = larger tumour
Protocol: The antitumor activity of compounds was measured in mice bearing transplantable tumors. Survival or tumor size were measured and the results are expressed as the measurement made in the treated group (T) divided by the measurement made in the vehicle treated control group (C). The tumor model used in this assay is P1798 Lymphosarcoma (subcutaneous) in CD2F1 (CDF1) mice

[1] = T/C endpoint: mean tumor weight, dose: 16.0 mg/kg/injection, schedule: Q01DX010 (ip), vehicle: saline, evaluated on day 12
[2] = T/C endpoint: mean tumor weight, dose: 32.0 mg/kg/injection, schedule: Q01DX010 (ip), vehicle: saline
[3] = T/C endpoint: mean tumor weight, dose: 64.0 mg/kg/injection, schedule: Q01DX010 (ip), vehicle: saline
[4] = T/C endpoint: mean tumor weight, dose: 200.0 mg/kg/injection, schedule: Q01DX010 (ip), vehicle: saline
[5] = T/C endpoint: mean tumor weight (est.), dose: 25.0 mg/kg/injection, schedule: Q01DX016 (sc), vehicle: saline
[6] = T/C endpoint: mean tumor weight, dose: 400.0 mg/kg/injection, schedule: Q01DX010 (ip), vehicle: saline
[7] = T/C endpoint: mean tumor weight, dose: 100.0 mg/kg/injection, schedule: Q01DX010 (ip), vehicle: saline
[8] = T/C endpoint: mean tumor weight, dose: 160.0 mg/kg/injection, schedule: Q01DX010 (ip), vehicle: saline
[9] = T/C endpoint: mean tumor weight, dose: 600.0 mg/kg/injection, schedule: Q01DX010 (ip), vehicle: saline
[10] = T/C endpoint: mean tumor weight, dose: 5.0 mg/kg/injection, schedule: Q01DX010 (ip), vehicle: saline
[11] = T/C endpoint: mean tumor weight, dose: 10.0 mg/kg/injection, schedule: Q01DX010 (ip), vehicle: saline
[12] = T/C endpoint: mean tumor weight, dose: 80.0 mg/kg/injection, schedule: Q01DX010 (ip), vehicle: saline

SMILES: c1ccc(CNc2ncnc3[nH]ncc23)cc1
- T/C [1]: 141 % of control
- survivor count [2]: 1 of 6
- survivor count [3]: 1 of 6

SMILES: Clc1ncnc2nc[nH]c12
- T/C (T/C endpoint: mean tumor weight, dose: 30.0 mg/kg/injection, schedule: Q01DX010 (ip), vehicle: saline, evaluated on day 12): 129 % of control

SMILES: CC(=O)c1ccccc1C
- survivor count (T/C endpoint: mean tumor weight, dose: 60.0 mg/kg/injection, schedule: Q01DX010 (ip), vehicle: saline): 2 of 6

SMILES: CCn1cnc2c(=S)nc[nH]c21
- survivor count (T/C endpoint: mean tumor weight, dose: 125.0 mg/kg/injection, schedule: Q01DX010 (ip), vehicle: saline): 0 of 6 and 1 of 6

SMILES: O=C1C=CC2(CCC23C=CC(=O)O3)O1 (stereo unspecified)
- T/C (T/C endpoint: mean tumor weight, dose: 30.0 mg/kg/injection, schedule: Q01DX011 (ip), vehicle: saline, evaluated on day 12): 143 % of control
- survivor count (T/C endpoint: mean tumor weight, dose: 150.0 mg/kg/injection, schedule: Q01DX011 (ip), vehicle: saline): 0 of 6

SMILES: CC(CCC(C)OS(C)(=O)=O)OS(C)(=O)=O (stereo unspecified)
- survivor count [2]: 0 of 6

SMILES: CCN(CC)CCCC(C)Nc1c2ccc(Cl)cc2nc2ccc(OC)cc12 (stereo unspecified)
- survivor count [4]: 0 of 6

SMILES: CC(=O)OC1C=CC(=O)OC1C1OC1C (stereo unspecified)
- T/C (T/C endpoint: mean tumor weight, dose: 13.0 mg/kg/injection, schedule: Q01DX011 (ip), vehicle: saline, evaluated on day 12): 134 % of control
- survivor count (T/C endpoint: mean tumor weight, dose: 19.0 mg/kg/injection, schedule: Q01DX011 (ip), vehicle: saline): 1 of 6
- survivor count (T/C endpoint: mean tumor weight, dose: 29.0 mg/kg/injection, schedule: Q01DX011 (ip), vehicle: saline): 0 of 6
- survivor count (T/C endpoint: mean tumor weight, dose: 45.0 mg/kg/injection, schedule: Q01DX011 (ip), vehicle: saline): 0 of 6

SMILES: C[C@@H]1C[C@H]2[C@@H]3CCC4=CC(=O)C=C[C@]4(C)[C@@]3(F)[C@@H](O)C[C@]2(C)[C@@]1(O)C(=O)CO
- survivor count [5]: 2 of 10 on day 24
- T/C (T/C endpoint: mean tumor weight, dose: 12.5 mg/kg/injection, schedule: Q01DX010 (sc), vehicle: steroid suspending solution, evaluated on day 12): 2 and 2 % of control [4 of 6 alive]
- survivor count (T/C endpoint: mean tumor weight, dose: 12.5 mg/kg/injection, schedule: Q01DX010 (sc), vehicle: steroid suspending solution): 1 of 6
- T/C (T/C endpoint: mean tumor weight, dose: 12.5 mg/kg/injection, schedule: Q01DX010 (sc), vehicle: steroid suspending solution, run until all animals had died): 78 % of control
- T/C (T/C endpoint: mean tumor weight, dose: 25.0 mg/kg/injection, schedule: Q01DX010 (sc), vehicle: steroid suspending solution, evaluated on day 12): 2 and 2 % of control [5 of 6 alive]
- survivor count (T/C endpoint: mean tumor weight, dose: 25.0 mg/kg/injection, schedule: Q01DX010 (sc), vehicle: steroid suspending solution): 2 of 6
- T/C (T/C endpoint: mean tumor weight, dose: 25.0 mg/kg/injection, schedule: Q01DX010 (sc), vehicle: steroid suspending solution, run until all animals had died): 34 % of control
- survivor count (T/C endpoint: mean tumor weight, dose: 50.0 mg/kg/injection, schedule: Q01DX010 (sc), vehicle: steroid suspending solution): 0 of 6 and 1 of 6
- survivor count (T/C endpoint: mean tumor weight, dose: 100.0 mg/kg/injection, schedule: Q01DX010 (sc), vehicle: steroid suspending solution): 0 of 6

SMILES: CN(N=O)C(=O)NC(C=O)C(O)C(O)C(O)CO (stereo unspecified)
- survivor count (T/C endpoint: mean tumor weight, dose: 135.0 mg/kg/injection, schedule: Q01DX010 (ip), vehicle: saline): 0 of 6 and 1 of 6

SMILES: O=C(NCCCCC(NC(=O)OCc1ccccc1)C(=O)NCCCCCCNCCCCCCNC(=O)C(CCCCNC(=O)OCc1ccccc1)NC(=O)OCc1ccccc1)OCc1ccccc1 (stereo unspecified)
- survivor count [6]: 0 of 6

SMILES: CC1=C[C@@H]2[C@H]([C@@H](O)C[C@@]3(C)[C@H]2CC(C)[C@]3(O)C(=O)CO)[C@@]2(C)Cc3cnn(-c4ccccc4)c3C=C12 (stereo partly specified)
- survivor count (T/C endpoint: mean tumor weight (est.), dose: 6.25 mg/kg/injection, schedule: Q01DX016 (sc), vehicle: saline): 0 of 10 on day 24
- survivor count (T/C endpoint: mean tumor weight (est.), dose: 12.5 mg/kg/injection, schedule: Q01DX016 (sc), vehicle: saline): 0 of 10 on day 24
- survivor count [5]: 0 of 10 on day 24

SMILES: CS(=O)(=O)OCCN(CCOS(C)(=O)=O)c1ccc(N=O)cc1
- survivor count (T/C endpoint: mean tumor weight, dose: 1.0 mg/kg/injection, schedule: Q01DX010 (ip), vehicle: saline): 3 of 6
- survivor count (T/C endpoint: mean tumor weight, dose: 2.0 mg/kg/injection, schedule: Q01DX010 (ip), vehicle: saline): 0 of 6 and 1 of 6
- survivor count (T/C endpoint: mean tumor weight, dose: 4.0 mg/kg/injection, schedule: Q01DX010 (ip), vehicle: saline): 0 of 6

SMILES: c1ccc(CSc2ncnc3nc[nH]c23)cc1
- survivor count [7]: 2 of 6

SMILES: CC(=O)Nc1ccc(/C=N/Nc2ccc([N+](=O)[O-])cn2)cc1
- survivor count (T/C endpoint: mean tumor weight, dose: 500.0 mg/kg/injection, schedule: Q01DX010 (ip), vehicle: saline): 3 of 6

SMILES: O=C1NC2C(NC(=O)N2Cl)N1Cl (stereo unspecified)
- survivor count [8]: 0 of 6

SMILES: O=c1cn[nH]c(=O)[nH]1
- T/C (T/C endpoint: mean tumor weight, dose: 125.0 mg/kg/injection, schedule: Q01DX010 (ip), vehicle: saline, evaluated on day 12): 131 % of control
- T/C (T/C endpoint: mean tumor weight, dose: 500.0 mg/kg/injection, schedule: Q01DX010 (ip), vehicle: saline, evaluated on day 12): 137 % of control

SMILES: N#Cc1ccc(S(N)(=O)=O)cc1
- survivor count (T/C endpoint: mean tumor weight, dose: 73.0 mg/kg/injection, schedule: Q01DX010 (ip), vehicle: saline): 3 of 6
- survivor count (T/C endpoint: mean tumor weight, dose: 111.0 mg/kg/injection, schedule: Q01DX010 (ip), vehicle: saline): 0 of 6
- survivor count (T/C endpoint: mean tumor weight, dose: 166.0 mg/kg/injection, schedule: Q01DX010 (ip), vehicle: saline): 1 of 6
- survivor count (T/C endpoint: mean tumor weight, dose: 250.0 mg/kg/injection, schedule: Q01DX010 (ip), vehicle: saline): 0 of 6

SMILES: CN(C)CCCN1c2ccccc2Sc2ccc(C(F)(F)F)cc21
- survivor count (T/C endpoint: mean tumor weight, dose: 50.0 mg/kg/injection, schedule: Q01DX010 (ip), vehicle: saline): 0 of 6
- survivor count [7]: 0 of 6

SMILES: CO[C@@H]1[C@@H](OC2OC(C)C(OC3CC(C)(O)C(OC(=O)CC(C)C)C(C)O3)C(N(C)C)C2O)[C@@H](CC=O)C[C@@H](C)C(=O)/C=C/C2O[C@H]2C[C@@H](C)OC(=O)C[C@H]1OC(C)=O (stereo partly specified)
- survivor count [9]: 0 of 6

SMILES: CCOC(C)C(/C=N/NC(N)=S)=NNC(N)=S (stereo unspecified)
- T/C (T/C endpoint: mean tumor weight, dose: 15.0 mg/kg/injection, schedule: Q01DX010 (ip), vehicle: saline, evaluated on day 12): 125 % of control

SMILES: Nc1nc(=S)c2[nH]cnc2[nH]1
- survivor count (T/C endpoint: mean tumor weight, dose: 2.5 mg/kg/injection, schedule: Q01DX010 (ip), vehicle: saline): 1 of 6
- survivor count [10]: 0 of 6
- survivor count [11]: 0 of 6

SMILES: COc1cc(-c2ccc(Nc3ccccc3C(=O)O)c(OC)c2)ccc1N
- survivor count [12]: 3 of 6
- survivor count [8]: 0 of 6

SMILES: N#Cc1cn(C2OC(CO)C(O)C2O)c2ncnc(N)c12 (stereo unspecified)
- survivor count (T/C endpoint: mean tumor weight, dose: 0.5 mg/kg/injection, schedule: Q01DX010 (ip), vehicle: saline): 1 of 6

SMILES: CC(=O)O[C@H]1CC[C@H]2[C@@H]3CC[C@H]4CCCC[C@]4(C)[C@H]3CC[C@]12C
- T/C (T/C endpoint: mean tumor weight, dose: 50.0 mg/kg/injection, schedule: Q01DX010 (sc), vehicle: steroid suspending solution, evaluated on day 12): 137 % of control

SMILES: CN(Cc1cnc2nc(N)nc(N)c2n1)c1c(Cl)cc(C(=O)NC(CCC(=O)O)C(=O)O)cc1Cl (stereo unspecified)
- survivor count (T/C endpoint: mean tumor weight, dose: 40.0 mg/kg/injection, schedule: Q01DX010 (ip), vehicle: saline): 3 of 6
- survivor count [12]: 1 of 6

SMILES: Nc1nc(SCc2ccccc2)c2[nH]cnc2n1
- T/C [1]: 135 % of control
- survivor count [3]: 1 of 6

SMILES: O=C1C=Cc2ccc(O)cc2C1=O
- survivor count [10]: 3 of 6
- survivor count [11]: 0 of 6

SMILES: CN(C)N=Nc1cccc([N+](=O)[O-])c1
- survivor count (T/C endpoint: mean tumor weight, dose: 178.0 mg/kg/injection, schedule: Q01DX011 (ip), vehicle: saline): 0 of 6
- survivor count (T/C endpoint: mean tumor weight, dose: 267.0 mg/kg/injection, schedule: Q01DX011 (ip), vehicle: saline): 0 of 6
- survivor count [6]: 4 of 7
- survivor count (T/C endpoint: mean tumor weight, dose: 400.0 mg/kg/injection, schedule: Q01DX011 (ip), vehicle: saline): 0 of 6
- survivor count [9]: 2 of 7
- survivor count (T/C endpoint: mean tumor weight, dose: 600.0 mg/kg/injection, schedule: Q01DX011 (ip), vehicle: saline): 0 of 6

SMILES: O=C(CNC(=O)OCc1ccccc1)NCCCCCCNCCCCCCNC(=O)CNC(=O)OCc1ccccc1
- T/C (T/C endpoint: mean tumor weight, dose: 25.0 mg/kg/injection, schedule: Q01DX010 (ip), vehicle: saline, evaluated on day 12): 129 % of control
- survivor count [4]: 3 of 6

SMILES: COC1C(OC(=O)/C=C/C=C/C=C/C=C/C(=O)O)CCC2(CO2)C1C1(C)OC1CC=C(C)C (stereo unspecified)
- survivor count [4]: 2 of 6
